No constants are given. Whether binding was seen depends on the method and setting. In cells and extracts the contact can be indirect. Some entries that bind do so weakly or less than the wild type.

Chains of the proteins cited; added tags and fusions are not shown.
UniProt P15924: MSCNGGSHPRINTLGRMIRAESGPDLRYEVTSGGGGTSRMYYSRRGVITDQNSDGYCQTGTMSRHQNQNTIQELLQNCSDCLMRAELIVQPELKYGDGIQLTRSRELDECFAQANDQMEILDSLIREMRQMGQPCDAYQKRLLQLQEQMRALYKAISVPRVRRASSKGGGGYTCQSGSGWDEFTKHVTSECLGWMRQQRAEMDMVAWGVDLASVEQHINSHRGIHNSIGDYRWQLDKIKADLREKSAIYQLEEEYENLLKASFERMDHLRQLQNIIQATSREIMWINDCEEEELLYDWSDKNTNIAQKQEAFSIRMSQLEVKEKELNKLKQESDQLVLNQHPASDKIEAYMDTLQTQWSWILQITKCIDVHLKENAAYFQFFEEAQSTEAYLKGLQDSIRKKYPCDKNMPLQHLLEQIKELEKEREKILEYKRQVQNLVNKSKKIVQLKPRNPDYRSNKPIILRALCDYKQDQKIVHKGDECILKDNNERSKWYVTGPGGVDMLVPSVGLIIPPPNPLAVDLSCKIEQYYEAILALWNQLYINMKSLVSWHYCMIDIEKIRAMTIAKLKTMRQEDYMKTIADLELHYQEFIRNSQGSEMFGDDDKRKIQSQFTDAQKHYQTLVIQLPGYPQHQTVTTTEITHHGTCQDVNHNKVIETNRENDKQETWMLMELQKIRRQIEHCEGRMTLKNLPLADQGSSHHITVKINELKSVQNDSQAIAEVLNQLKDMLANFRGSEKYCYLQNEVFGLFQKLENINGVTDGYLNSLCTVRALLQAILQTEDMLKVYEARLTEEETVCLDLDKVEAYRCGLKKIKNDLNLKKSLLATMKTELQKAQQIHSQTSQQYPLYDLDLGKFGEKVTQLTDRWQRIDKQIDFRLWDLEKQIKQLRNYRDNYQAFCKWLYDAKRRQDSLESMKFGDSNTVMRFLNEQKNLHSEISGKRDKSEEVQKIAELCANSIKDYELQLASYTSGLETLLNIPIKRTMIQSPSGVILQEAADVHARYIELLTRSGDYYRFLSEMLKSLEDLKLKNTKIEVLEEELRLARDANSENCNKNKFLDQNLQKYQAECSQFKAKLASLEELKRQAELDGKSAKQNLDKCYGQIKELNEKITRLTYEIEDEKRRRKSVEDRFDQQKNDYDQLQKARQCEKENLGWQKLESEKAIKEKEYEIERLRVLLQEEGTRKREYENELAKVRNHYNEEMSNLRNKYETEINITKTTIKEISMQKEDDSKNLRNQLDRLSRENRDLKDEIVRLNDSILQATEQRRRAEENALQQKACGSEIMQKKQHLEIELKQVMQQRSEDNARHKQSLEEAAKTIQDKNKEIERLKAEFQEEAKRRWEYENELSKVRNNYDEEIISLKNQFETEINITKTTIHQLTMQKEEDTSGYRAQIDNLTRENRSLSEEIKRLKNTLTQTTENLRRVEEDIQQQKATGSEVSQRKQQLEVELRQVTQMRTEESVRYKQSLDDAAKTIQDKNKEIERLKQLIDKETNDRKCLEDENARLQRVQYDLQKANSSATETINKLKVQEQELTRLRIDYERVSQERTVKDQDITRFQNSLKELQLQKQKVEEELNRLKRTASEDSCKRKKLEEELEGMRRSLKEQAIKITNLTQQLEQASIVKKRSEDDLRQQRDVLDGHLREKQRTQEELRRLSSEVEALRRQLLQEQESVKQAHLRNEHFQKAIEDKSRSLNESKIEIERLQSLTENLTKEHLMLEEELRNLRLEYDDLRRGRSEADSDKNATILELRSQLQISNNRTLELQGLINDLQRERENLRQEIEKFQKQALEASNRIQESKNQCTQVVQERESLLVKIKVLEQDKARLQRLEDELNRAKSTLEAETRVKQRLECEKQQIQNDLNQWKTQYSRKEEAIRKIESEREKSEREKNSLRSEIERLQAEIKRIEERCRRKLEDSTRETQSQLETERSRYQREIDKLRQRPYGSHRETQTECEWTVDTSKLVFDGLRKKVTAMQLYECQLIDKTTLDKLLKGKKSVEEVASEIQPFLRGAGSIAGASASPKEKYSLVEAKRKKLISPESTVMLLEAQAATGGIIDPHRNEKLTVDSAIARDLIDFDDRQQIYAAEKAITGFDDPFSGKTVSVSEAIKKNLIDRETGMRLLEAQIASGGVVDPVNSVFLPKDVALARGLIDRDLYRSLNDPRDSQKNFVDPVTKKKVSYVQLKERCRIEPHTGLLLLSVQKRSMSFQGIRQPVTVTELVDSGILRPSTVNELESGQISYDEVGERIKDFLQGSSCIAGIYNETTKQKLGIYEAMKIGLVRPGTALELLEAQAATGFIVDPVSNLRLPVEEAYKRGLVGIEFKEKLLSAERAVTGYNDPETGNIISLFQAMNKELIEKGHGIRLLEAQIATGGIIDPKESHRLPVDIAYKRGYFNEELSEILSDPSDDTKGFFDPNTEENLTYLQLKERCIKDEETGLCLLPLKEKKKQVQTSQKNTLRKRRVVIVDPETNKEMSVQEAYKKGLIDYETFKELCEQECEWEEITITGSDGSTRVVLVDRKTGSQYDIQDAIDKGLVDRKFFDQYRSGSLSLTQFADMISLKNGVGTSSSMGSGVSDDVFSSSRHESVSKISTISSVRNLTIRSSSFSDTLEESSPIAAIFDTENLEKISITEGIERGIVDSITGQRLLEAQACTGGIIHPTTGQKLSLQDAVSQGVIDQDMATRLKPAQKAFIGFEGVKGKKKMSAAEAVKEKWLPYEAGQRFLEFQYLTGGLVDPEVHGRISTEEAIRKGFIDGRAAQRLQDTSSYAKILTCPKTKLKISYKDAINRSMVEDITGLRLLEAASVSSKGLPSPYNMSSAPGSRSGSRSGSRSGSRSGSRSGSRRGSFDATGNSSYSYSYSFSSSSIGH

In this assay the target is T1, PP2A regulatory subunit B55α (human (endogenous in SCC9)) (UniProt P63151).
T1 sequence: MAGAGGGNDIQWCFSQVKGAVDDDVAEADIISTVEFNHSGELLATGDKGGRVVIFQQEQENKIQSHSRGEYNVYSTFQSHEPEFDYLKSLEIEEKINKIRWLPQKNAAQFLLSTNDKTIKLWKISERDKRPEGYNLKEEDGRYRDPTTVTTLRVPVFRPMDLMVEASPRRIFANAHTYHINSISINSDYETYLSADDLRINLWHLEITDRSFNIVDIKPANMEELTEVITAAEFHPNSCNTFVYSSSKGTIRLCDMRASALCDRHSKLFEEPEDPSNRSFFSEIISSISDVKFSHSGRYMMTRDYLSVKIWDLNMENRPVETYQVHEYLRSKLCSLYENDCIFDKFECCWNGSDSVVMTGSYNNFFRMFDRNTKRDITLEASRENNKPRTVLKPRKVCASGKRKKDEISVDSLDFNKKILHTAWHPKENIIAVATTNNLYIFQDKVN
Briefly: co-IP.

On to “desmoplakin (DP) (from UniProt P15924 1-2871)”, for which the binding entry is “binds”.

For the origin of these results see publication doi:10.1101/2022.10.19.512916.
